In US20220204572A1:
No constants are given. Whether binding was seen depends on the method and setting. Binding seen in cells or lysates may run through a third protein. Some entries that bind do so weakly or less than the wild type.

The chains behind the UniProt entries cited, without tags or fusion partners. Residues count along the entry.
UniProt P35222, residues 2-781: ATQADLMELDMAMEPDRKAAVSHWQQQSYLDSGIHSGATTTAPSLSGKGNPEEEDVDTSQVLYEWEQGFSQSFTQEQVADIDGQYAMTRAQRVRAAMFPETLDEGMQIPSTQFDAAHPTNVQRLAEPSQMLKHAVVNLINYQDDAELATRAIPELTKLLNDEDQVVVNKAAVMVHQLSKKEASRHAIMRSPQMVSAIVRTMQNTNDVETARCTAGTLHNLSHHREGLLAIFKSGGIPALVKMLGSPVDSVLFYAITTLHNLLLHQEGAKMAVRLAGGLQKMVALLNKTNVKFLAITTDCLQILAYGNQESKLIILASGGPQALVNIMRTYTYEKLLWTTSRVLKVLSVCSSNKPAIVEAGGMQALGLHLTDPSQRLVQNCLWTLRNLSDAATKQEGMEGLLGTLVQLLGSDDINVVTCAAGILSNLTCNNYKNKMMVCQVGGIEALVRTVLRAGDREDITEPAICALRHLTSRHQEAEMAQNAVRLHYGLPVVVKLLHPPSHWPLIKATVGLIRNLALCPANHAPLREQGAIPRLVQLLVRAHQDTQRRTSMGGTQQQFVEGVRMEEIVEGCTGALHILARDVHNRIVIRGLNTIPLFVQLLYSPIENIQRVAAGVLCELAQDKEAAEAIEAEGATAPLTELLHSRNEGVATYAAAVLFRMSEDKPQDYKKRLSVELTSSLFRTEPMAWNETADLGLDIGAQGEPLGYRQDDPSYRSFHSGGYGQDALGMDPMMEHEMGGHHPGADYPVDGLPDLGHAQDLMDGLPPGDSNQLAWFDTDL
UniProt P12830, residues 155-882: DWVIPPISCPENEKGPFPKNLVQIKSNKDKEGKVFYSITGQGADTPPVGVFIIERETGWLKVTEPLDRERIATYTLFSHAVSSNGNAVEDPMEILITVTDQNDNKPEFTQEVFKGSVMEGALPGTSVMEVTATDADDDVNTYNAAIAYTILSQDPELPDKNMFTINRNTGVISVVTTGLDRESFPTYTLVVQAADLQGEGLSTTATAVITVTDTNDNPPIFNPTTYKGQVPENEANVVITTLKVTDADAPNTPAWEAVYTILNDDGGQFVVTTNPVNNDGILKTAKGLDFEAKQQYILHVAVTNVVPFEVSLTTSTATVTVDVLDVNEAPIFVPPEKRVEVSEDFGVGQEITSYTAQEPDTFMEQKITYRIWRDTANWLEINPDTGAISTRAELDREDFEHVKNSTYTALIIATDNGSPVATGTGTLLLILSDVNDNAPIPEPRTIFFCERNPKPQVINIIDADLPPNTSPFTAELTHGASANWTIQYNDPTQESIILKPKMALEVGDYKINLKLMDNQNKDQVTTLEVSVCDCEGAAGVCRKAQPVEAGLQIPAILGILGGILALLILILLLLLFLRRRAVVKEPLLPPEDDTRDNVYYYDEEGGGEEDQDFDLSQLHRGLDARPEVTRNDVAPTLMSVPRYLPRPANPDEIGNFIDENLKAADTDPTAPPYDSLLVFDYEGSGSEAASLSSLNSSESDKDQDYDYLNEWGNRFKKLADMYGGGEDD

Key:
[1] = target: β-catenin (native, in cell lysates) (UniProt P35222); test: co-immunoprecipitation
[2] = target: β-catenin (native, in cell lysates) (UniProt P35222); test: anti-β-catenin co-immunoprecipitation from MCF7 lysates (FIG. 8A)

E-cadherin (native, in MCF7 cell lysates) (from UniProt P12830 155-882)
binding [1]: binds | binding [2]: binds
